The source of these data is US20130012916A1.

By UniProt entry, the sequences of proteins in these tests, tags left out. Residues count along the entry.
UniProt Q28833, residues 438-2482: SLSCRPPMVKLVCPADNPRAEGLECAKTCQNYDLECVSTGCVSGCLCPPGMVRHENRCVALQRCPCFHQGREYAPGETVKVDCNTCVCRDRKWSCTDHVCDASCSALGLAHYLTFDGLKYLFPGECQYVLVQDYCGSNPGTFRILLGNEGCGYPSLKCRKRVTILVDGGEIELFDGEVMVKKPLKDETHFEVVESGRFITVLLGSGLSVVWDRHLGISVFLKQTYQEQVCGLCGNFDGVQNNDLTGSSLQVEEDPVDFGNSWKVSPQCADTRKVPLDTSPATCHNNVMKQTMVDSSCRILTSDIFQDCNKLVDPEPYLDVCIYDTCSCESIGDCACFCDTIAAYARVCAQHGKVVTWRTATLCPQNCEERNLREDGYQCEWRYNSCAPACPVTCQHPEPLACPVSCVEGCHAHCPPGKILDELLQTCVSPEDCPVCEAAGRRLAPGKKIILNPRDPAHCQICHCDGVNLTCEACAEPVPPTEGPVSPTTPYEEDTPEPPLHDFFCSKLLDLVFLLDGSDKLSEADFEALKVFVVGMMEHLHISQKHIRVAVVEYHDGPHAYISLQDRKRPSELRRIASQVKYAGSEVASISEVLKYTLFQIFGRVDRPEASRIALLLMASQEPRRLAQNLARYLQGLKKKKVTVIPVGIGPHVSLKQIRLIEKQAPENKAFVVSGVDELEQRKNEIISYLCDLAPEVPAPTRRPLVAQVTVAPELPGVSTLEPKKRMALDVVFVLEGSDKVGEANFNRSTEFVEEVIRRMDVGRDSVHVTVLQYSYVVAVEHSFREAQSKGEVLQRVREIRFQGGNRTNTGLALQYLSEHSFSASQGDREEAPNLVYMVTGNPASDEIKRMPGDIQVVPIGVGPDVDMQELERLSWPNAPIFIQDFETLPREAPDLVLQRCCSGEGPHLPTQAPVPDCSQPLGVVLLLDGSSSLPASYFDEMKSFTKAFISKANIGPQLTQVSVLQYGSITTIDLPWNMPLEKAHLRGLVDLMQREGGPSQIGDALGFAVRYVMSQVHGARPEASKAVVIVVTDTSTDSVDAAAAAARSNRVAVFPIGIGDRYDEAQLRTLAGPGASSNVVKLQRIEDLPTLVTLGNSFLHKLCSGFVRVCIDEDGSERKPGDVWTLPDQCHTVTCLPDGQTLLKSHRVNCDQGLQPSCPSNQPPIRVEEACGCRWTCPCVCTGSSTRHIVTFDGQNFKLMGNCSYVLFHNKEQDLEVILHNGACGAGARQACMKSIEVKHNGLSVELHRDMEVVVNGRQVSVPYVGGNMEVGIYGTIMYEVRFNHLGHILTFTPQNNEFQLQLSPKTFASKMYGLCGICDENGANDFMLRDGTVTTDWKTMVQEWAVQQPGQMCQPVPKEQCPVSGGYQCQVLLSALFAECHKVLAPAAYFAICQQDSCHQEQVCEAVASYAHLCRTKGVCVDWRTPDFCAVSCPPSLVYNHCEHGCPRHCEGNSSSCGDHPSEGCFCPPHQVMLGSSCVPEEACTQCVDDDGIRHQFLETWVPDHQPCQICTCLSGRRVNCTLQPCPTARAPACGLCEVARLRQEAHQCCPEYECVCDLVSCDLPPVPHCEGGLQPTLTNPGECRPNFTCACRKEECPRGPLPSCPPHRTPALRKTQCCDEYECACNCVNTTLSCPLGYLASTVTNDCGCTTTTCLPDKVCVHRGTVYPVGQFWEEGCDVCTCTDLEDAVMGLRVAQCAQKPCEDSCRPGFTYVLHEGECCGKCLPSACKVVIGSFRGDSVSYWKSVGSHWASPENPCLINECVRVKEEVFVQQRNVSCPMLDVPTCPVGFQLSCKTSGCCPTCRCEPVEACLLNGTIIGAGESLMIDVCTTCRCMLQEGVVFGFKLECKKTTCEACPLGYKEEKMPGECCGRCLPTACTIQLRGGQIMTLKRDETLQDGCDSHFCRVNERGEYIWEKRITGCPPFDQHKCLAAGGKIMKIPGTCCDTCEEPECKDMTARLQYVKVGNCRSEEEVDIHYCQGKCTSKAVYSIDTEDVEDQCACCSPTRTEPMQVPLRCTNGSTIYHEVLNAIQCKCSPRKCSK
UniProt P04275, residues 764-2813: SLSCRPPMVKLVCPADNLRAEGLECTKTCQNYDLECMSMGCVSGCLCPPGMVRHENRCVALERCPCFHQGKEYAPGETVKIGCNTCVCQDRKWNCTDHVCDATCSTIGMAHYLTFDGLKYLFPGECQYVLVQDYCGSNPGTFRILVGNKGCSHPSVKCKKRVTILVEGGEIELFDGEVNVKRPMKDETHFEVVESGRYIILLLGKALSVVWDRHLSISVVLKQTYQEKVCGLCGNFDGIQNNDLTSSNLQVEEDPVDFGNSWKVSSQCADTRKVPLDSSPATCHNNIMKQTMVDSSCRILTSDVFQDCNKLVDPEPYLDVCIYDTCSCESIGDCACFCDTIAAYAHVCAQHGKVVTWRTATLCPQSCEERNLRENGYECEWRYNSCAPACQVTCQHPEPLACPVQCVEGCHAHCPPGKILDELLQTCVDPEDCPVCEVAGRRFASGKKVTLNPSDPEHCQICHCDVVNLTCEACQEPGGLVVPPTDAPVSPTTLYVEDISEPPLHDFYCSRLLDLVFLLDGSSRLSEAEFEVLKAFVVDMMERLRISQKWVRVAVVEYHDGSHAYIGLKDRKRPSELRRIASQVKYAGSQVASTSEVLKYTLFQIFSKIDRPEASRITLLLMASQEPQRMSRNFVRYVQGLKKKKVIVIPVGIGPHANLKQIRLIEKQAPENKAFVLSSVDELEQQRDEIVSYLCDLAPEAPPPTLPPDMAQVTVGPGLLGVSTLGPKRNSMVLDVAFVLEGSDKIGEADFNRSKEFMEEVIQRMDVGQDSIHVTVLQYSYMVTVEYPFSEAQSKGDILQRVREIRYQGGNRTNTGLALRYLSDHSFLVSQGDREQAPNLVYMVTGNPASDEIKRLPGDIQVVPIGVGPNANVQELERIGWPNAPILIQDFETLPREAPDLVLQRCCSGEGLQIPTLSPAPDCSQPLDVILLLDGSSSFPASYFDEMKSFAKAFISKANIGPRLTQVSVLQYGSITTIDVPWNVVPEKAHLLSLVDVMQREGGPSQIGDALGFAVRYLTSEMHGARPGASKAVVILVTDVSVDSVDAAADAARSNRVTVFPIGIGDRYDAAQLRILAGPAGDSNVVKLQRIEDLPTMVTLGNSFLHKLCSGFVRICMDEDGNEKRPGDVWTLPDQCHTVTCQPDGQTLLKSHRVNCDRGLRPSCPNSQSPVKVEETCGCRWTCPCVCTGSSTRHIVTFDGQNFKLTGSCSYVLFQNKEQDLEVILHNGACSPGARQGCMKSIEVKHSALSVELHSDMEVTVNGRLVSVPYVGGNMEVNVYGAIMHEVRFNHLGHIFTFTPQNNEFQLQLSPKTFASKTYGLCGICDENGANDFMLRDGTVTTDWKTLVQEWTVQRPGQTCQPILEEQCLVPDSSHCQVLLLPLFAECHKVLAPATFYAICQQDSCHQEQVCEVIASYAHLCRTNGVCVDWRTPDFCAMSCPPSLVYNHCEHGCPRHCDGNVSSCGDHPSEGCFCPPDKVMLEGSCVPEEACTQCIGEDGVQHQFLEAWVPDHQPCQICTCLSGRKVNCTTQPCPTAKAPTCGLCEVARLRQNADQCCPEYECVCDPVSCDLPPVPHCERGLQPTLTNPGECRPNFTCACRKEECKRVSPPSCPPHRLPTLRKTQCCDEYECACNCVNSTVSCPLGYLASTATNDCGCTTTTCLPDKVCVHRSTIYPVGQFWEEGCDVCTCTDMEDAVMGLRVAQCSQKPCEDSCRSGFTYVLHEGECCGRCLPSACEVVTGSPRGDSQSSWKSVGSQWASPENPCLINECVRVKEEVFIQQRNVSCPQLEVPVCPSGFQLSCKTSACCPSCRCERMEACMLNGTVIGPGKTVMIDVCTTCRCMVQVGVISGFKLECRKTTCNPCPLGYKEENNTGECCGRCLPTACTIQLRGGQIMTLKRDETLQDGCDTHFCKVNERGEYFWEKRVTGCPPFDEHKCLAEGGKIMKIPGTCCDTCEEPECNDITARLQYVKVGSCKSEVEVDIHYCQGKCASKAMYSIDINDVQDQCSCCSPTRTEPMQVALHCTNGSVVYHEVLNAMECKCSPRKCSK

One assay has as its target VWF in pig plasma (pig) (UniProt Q28833). Put plainly: cross-reactivity of pigs with the test item; method not described.
The target in assay [1] is purified vWF (ZLB Behring) (UniProt P04275). Put plainly: PK ELISA: captured Nanobody complexed with purified vWF, detected with anti-human vWF antibody.

Results are given in words; binding and its absence hold for the method and conditions named. Some binding calls cover weakened binding; strength is not graded here.

B1: Nanobody ALX0081sv1 (vWF0002) (VHH)
chain: DVQLVESGGGLVQPGGSLRLSCAASGRTFSYNPMGWFRQAPGKGRELVAAISRTGGSTYYPESVEGRFTISRDNAKRTVYLQMNSLRAEDTAVYYCAAAGVRAEQGRVRTLPSEYTFWGQGTQVTVSSAAAEVQLVESGGGLVQPGGSLRLSCAASGRTFSYNPMGWFRQAPGKGRELVAAISRTGGSTYYPESVEGRFTISRDNAKRTVYLQMNSLRAEDTAVYYCAAAGVRAEQGRVRTLPSEYTFWGQGTQVTVSS
In the case of B1, the binding entry (with VWF in pig plasma (pig); in assay [1]) was “binds” throughout.
